pIC50: −log10 of the molar value.
Molecular target: T1, Amine oxidase [flavin-containing] B (Rattus norvegicus, UniProt P19643)
T1 sequence (P19643 whole entry): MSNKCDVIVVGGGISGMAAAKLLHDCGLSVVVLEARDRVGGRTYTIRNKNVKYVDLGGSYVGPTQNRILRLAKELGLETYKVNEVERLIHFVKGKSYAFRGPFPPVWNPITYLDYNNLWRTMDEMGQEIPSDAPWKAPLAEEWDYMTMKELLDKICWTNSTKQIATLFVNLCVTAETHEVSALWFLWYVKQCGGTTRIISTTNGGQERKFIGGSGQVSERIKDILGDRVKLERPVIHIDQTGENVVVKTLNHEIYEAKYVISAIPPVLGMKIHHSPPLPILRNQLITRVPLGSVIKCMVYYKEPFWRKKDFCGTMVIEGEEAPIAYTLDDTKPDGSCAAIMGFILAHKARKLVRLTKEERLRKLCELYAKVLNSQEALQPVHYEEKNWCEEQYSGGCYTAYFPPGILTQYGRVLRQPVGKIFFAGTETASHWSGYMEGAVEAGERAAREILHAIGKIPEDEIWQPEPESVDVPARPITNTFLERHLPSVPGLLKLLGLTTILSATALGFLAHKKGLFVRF
Test: In vitro inhibitory activity against monoamine oxidase B (MAO-B) in rat brain homogenate.
Type: tissue-based

Cc1ccc(COc2ccc3c(C)c(C)c(=O)oc3c2)cc1
pIC50: 9.05

— ChEMBL document CHEMBL1127882, “Synthesis of coumarins as subtype-selective inhibitors of monoamine oxidase” (Bioorg Med Chem Lett, 1994)
